Paper PMC7707563
Results are given in words; binding and its absence hold for the method and conditions named. For some assays here: Binding seen in cells or lysates may run through a third protein. Some binding calls cover weakened binding; strength is not graded here. For some assays here: Where a sequence is shown, tags or fusion partners need not be part of it.

By UniProt entry, the sequences of proteins in these tests, tags left out. Residues count along the entry.
UniProt Q9NPF7, residues 20-189: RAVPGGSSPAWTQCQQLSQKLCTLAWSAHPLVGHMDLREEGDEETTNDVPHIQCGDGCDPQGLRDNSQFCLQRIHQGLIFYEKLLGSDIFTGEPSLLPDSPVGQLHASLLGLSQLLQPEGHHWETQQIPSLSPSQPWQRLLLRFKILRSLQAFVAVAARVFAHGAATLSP
UniProt P29460, residues 23-328: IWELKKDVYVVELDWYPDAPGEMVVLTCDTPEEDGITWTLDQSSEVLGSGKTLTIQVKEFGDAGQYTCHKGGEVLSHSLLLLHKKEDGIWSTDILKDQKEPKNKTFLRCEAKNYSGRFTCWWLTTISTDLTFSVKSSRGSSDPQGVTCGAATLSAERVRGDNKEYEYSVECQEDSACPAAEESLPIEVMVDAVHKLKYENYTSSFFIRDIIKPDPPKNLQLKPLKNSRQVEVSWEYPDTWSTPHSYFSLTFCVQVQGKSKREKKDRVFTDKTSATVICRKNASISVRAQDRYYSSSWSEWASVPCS

Assays:
[1] = target: human IL-23 p19 (aa20-189) (human) (UniProt Q9NPF7); test: ELISA; commercial human IL-23 MAX ELISA (Biolegend) on supernatants of p19 and/or EBI3-His transfected HEK293FT cells
[2] = target: T1, C-terminally 10 x His-tagged EBI3 (human) (UniProt Q14213); test: co-IP; concentrated, pre-cleared supernatants of p19 and EBI3-His co-transfected HEK293FT cells; anti-His antibody and Protein G sepharose, PBS-0.05% Tween 20, 4°C; p19 Western blot
T1 sequence: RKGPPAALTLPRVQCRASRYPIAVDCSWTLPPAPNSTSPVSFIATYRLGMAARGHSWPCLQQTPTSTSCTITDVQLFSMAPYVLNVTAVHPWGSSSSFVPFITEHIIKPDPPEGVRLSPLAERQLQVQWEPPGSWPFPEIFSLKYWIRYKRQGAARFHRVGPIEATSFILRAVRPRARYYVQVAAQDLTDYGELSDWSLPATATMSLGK

Substance | binding [1] | binding [2]
endogenous p40 (from UniProt P29460 23-328) | binds | 
human IL-23 p19 (aa20-189) (from UniProt Q9NPF7 20-189) |  | binds
